Results deposited as PubChem BioAssay AID1224830 (NIAID, 2016)

Test: 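Host factors that control LPS-induced TNF expression in human macrophages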 (primary screen)
System: human THP-1 monocytic leukaemia cells, TNF dual-luciferase reporter clone, PMA-differentiated to macrophage-like cells
Reagent: siRNA pool against human genes, 50 nM
Time to read-out: LPS for 4 h, given about 3 days after siRNA transfection
Treatment: bacterial LPS (TLR4 ligand), 10 ng/ml
Detection: 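TNF firefly reporter luminescence divided by renilla, normalised to the plate median, then turned into a robust z-score for each replicate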
Direction: TNF reporter robust z-score: higher = stronger TNF reporter response to LPS
Hit rule: 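a well is active when its z-score exceeds 2.8 or falls below -1.5; control wells carry no call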
This is an unselected part of about 18,000 deposited reagents. About 2,900 of them (16%) were called active. 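Calls are made per well; low scores hint the gene aids the LPS response, high scores that it dampens it.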 A number with no mark means an inactive call. Repeated entries: four replicate wells of each siRNA pool.

gene	TNF reporter robust z-score
CTSO (cathepsin O)	2.21
CTSO (cathepsin O)	-0.71
CTSO (cathepsin O)	0.75
CTSO (cathepsin O)	0.62
TSPAN31 (tetraspanin 31)	-0.5
TSPAN31 (tetraspanin 31)	-1.31
TSPAN31 (tetraspanin 31)	-1.21
TSPAN31 (tetraspanin 31)	-0.88
KLHL20 (kelch like family member 20)	-0.32
KLHL20 (kelch like family member 20)	1.2
KLHL20 (kelch like family member 20)	0
KLHL20 (kelch like family member 20)	0.83
ITGA4 (integrin subunit alpha 4)	0.29
ITGA4 (integrin subunit alpha 4)	-0.03
ITGA4 (integrin subunit alpha 4)	0
ITGA4 (integrin subunit alpha 4)	0.9
INA (internexin neuronal intermediate filament protein alpha)	-0.04
INA (internexin neuronal intermediate filament protein alpha)	-0.48
INA (internexin neuronal intermediate filament protein alpha)	0.31
INA (internexin neuronal intermediate filament protein alpha)	-0.39
ENO1 (enolase 1)	0.27
ENO1 (enolase 1)	-0.13
ENO1 (enolase 1)	2.12
ENO1 (enolase 1)	0.55
TSEN34 (tRNA splicing endonuclease subunit 34)	-0.25
TSEN34 (tRNA splicing endonuclease subunit 34)	1.49
TSEN34 (tRNA splicing endonuclease subunit 34)	0.99
TSEN34 (tRNA splicing endonuclease subunit 34)	1.79
SPATA31A3 (SPATA31 subfamily A member 3)	-0.31
SPATA31A3 (SPATA31 subfamily A member 3)	1.58
SPATA31A3 (SPATA31 subfamily A member 3)	0.46
SPATA31A3 (SPATA31 subfamily A member 3)	1.27
RAB6A (RAB6A, member RAS oncogene family)	0.82
RAB6A (RAB6A, member RAS oncogene family)	0.22
RAB6A (RAB6A, member RAS oncogene family)	-0.09
RAB6A (RAB6A, member RAS oncogene family)	0.62
H2AC13 (H2A clustered histone 13)	2.5
H2AC13 (H2A clustered histone 13)	2.24
H2AC13 (H2A clustered histone 13)	1.9
H2AC13 (H2A clustered histone 13)	2.62
NOLC1 (nucleolar and coiled-body phosphoprotein 1)	-1.63 (active)
NOLC1 (nucleolar and coiled-body phosphoprotein 1)	-0.9
NOLC1 (nucleolar and coiled-body phosphoprotein 1)	-0.23
NOLC1 (nucleolar and coiled-body phosphoprotein 1)	-1.37
DIP2C (DIP2 acetate--CoA ligase C (putative))	0.72
DIP2C (DIP2 acetate--CoA ligase C (putative))	0.09
DIP2C (DIP2 acetate--CoA ligase C (putative))	0.8
DIP2C (DIP2 acetate--CoA ligase C (putative))	1.04
PDK4 (pyruvate dehydrogenase kinase 4)	1.28
PDK4 (pyruvate dehydrogenase kinase 4)	-0.11
PDK4 (pyruvate dehydrogenase kinase 4)	-1.68 (active)
PDK4 (pyruvate dehydrogenase kinase 4)	-0.79
CABP5 (calcium binding protein 5)	2.46
CABP5 (calcium binding protein 5)	2.66
CABP5 (calcium binding protein 5)	1.57
CABP5 (calcium binding protein 5)	-0.09
VSIG8 (V-set and immunoglobulin domain containing 8)	1.06
VSIG8 (V-set and immunoglobulin domain containing 8)	0.78
VSIG8 (V-set and immunoglobulin domain containing 8)	0.17
VSIG8 (V-set and immunoglobulin domain containing 8)	-0.07
NCCRP1 (NCCRP1, F-box associated domain containing)	0.16
NCCRP1 (NCCRP1, F-box associated domain containing)	0.91
NCCRP1 (NCCRP1, F-box associated domain containing)	1.43
NCCRP1 (NCCRP1, F-box associated domain containing)	0.49
GALNT16 (polypeptide N-acetylgalactosaminyltransferase 16)	0.12
GALNT16 (polypeptide N-acetylgalactosaminyltransferase 16)	-0.54
GALNT16 (polypeptide N-acetylgalactosaminyltransferase 16)	-1.04
GALNT16 (polypeptide N-acetylgalactosaminyltransferase 16)	-0.07
CUEDC1 (CUE domain containing 1)	-0.32
CUEDC1 (CUE domain containing 1)	-0.98
CUEDC1 (CUE domain containing 1)	0.16
PPP3R2 (protein phosphatase 3 regulatory subunit B, beta)	-0.95
PPP3R2 (protein phosphatase 3 regulatory subunit B, beta)	-0.5
PPP3R2 (protein phosphatase 3 regulatory subunit B, beta)	-1.09
PPP3R2 (protein phosphatase 3 regulatory subunit B, beta)	-1.45
TRPA1	-0.53
TRPA1	-0.28
TRPA1	0.09
TRPA1	-0.1
EMC6 (ER membrane protein complex subunit 6)	0.87
EMC6 (ER membrane protein complex subunit 6)	1.12
EMC6 (ER membrane protein complex subunit 6)	0.07
EMC6 (ER membrane protein complex subunit 6)	-0.31
KIR3DX1	-0.28
KIR3DX1	0.46
KIR3DX1	-0.45
KIR3DX1	0.19
ATG7 (autophagy related 7)	-0.53
ATG7 (autophagy related 7)	-0.76
ATG7 (autophagy related 7)	-0.79
ATG7 (autophagy related 7)	-0.39
NRSN1 (neurensin 1)	0.45
NRSN1 (neurensin 1)	-0.46
NRSN1 (neurensin 1)	0.98
NRSN1 (neurensin 1)	-0.09
TRAIP (TRAF interacting protein)	-1.44
TRAIP (TRAF interacting protein)	0.22
TRAIP (TRAF interacting protein)	-1.62 (active)
TRAIP (TRAF interacting protein)	0.28
ACTG1 (actin gamma 1)	-0.91
ACTG1 (actin gamma 1)	-1.11
ACTG1 (actin gamma 1)	-0.22
ACTG1 (actin gamma 1)	-0.04
COPS7A (COP9 signalosome subunit 7A)	-2.1 (active)
COPS7A (COP9 signalosome subunit 7A)	-1.55 (active)
COPS7A (COP9 signalosome subunit 7A)	-1.93 (active)
COPS7A (COP9 signalosome subunit 7A)	-1.68 (active)
DHRS9 (dehydrogenase/reductase 9)	1.16
DHRS9 (dehydrogenase/reductase 9)	0.62
DHRS9 (dehydrogenase/reductase 9)	1
DHRS9 (dehydrogenase/reductase 9)	-0.05
UGGT2 (UDP-glucose glycoprotein glucosyltransferase 2)	-0.25
UGGT2 (UDP-glucose glycoprotein glucosyltransferase 2)	0.21
UGGT2 (UDP-glucose glycoprotein glucosyltransferase 2)	0.06
UGGT2 (UDP-glucose glycoprotein glucosyltransferase 2)	-0.02
INTS7 (integrator complex subunit 7)	1.16
INTS7 (integrator complex subunit 7)	1.32
INTS7 (integrator complex subunit 7)	2.38
INTS7 (integrator complex subunit 7)	1.45
SMYD2 (SET and MYND domain containing 2)	-0.32
SMYD2 (SET and MYND domain containing 2)	-0.02
SMYD2 (SET and MYND domain containing 2)	-0.11
SMYD2 (SET and MYND domain containing 2)	0.32
ATP6V1B2 (ATPase H+ transporting V1 subunit B2)	-1.81 (active)
ATP6V1B2 (ATPase H+ transporting V1 subunit B2)	-1.39
ATP6V1B2 (ATPase H+ transporting V1 subunit B2)	-1.48
ATP6V1B2 (ATPase H+ transporting V1 subunit B2)	-1.25
TRIM49 (tripartite motif containing 49)	1.53
TRIM49 (tripartite motif containing 49)	-2.36 (active)
TRIM49 (tripartite motif containing 49)	-0.86
TRIM49 (tripartite motif containing 49)	0.02
GPER1 (G protein-coupled estrogen receptor 1)	-1.22
GPER1 (G protein-coupled estrogen receptor 1)	0.65
GPER1 (G protein-coupled estrogen receptor 1)	-0.36
GPER1 (G protein-coupled estrogen receptor 1)	-0.52
MS4A6E (membrane spanning 4-domains A6E)	-0.21
MS4A6E (membrane spanning 4-domains A6E)	2.27
MS4A6E (membrane spanning 4-domains A6E)	1.6
MS4A6E (membrane spanning 4-domains A6E)	1.18
PRDX5 (peroxiredoxin 5)	-0.63
PRDX5 (peroxiredoxin 5)	0.06
PRDX5 (peroxiredoxin 5)	-0.78
PRDX5 (peroxiredoxin 5)	0.76

Laid out differently: entries from further up
| gene | TNF reporter robust z-score |
| --- | --- |
| GALNT16 (polypeptide N-acetylgalactosaminyltransferase 16) | 0.12 |
| GALNT16 (polypeptide N-acetylgalactosaminyltransferase 16) | -0.54 |
| GALNT16 (polypeptide N-acetylgalactosaminyltransferase 16) | -1.04 |
| GALNT16 (polypeptide N-acetylgalactosaminyltransferase 16) | -0.07 |
| CUEDC1 (CUE domain containing 1) | -0.32 |
| CUEDC1 (CUE domain containing 1) | -0.98 |
| CUEDC1 (CUE domain containing 1) | 0.16 |
| PPP3R2 (protein phosphatase 3 regulatory subunit B, beta) | -0.95 |
| PPP3R2 (protein phosphatase 3 regulatory subunit B, beta) | -0.5 |
| PPP3R2 (protein phosphatase 3 regulatory subunit B, beta) | -1.09 |
| PPP3R2 (protein phosphatase 3 regulatory subunit B, beta) | -1.45 |
| TRPA1 | -0.53 |
